Results: the supplement of paper PMC12823440, “Inhibitors supercharge kinase turnover through native proteolytic circuits” (Nature, 2025)
Some of the results follow. Hit calls seldom repeat between salt and free forms of one compound.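 In K562 cells expressing nanoluciferase-fused kinases, luminescence was recorded at 4 h intervals between 2 and 18 h, normalized as percent of control with DMSO at 100% and a positive control at 0%. A significant (2 sigma) signal drop marks a time point as decreased. The authors' rule for a hit is not shown and takes in more than the number of time points.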

The chains behind the UniProt entries cited, without tags or fusion partners. Where a name states a change or a piece, a line headed by the entry shows the natural chain unless it says otherwise.
UniProt P07947, whole entry, looked up: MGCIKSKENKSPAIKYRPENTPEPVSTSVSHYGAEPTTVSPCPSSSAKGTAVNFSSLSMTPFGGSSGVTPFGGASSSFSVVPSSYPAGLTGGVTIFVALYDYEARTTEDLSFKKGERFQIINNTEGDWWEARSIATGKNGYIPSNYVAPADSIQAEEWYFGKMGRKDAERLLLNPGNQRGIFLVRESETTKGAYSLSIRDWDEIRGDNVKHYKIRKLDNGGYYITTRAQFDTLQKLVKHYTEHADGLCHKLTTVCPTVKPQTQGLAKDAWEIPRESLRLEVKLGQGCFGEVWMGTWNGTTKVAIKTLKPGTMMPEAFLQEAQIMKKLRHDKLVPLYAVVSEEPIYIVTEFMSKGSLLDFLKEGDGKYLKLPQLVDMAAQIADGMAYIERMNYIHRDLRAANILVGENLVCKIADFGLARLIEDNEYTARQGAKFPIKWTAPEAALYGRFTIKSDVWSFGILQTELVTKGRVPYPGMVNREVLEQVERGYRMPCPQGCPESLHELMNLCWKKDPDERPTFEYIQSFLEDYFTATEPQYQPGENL
UniProt P43403: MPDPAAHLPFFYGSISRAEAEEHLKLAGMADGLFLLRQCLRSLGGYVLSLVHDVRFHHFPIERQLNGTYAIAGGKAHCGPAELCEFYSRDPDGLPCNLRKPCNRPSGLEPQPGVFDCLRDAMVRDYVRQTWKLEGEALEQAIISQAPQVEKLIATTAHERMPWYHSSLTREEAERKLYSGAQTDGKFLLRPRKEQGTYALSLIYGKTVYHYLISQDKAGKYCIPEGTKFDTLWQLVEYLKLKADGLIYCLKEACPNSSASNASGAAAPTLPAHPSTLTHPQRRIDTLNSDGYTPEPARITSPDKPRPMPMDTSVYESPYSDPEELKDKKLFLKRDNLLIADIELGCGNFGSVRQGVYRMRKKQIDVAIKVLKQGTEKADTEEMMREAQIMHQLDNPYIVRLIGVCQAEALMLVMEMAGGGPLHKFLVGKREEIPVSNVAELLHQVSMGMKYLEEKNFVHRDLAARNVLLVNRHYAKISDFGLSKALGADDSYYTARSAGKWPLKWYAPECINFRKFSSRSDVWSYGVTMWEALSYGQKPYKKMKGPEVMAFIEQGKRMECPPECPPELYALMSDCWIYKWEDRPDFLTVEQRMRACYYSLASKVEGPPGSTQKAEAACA
UniProt P11802: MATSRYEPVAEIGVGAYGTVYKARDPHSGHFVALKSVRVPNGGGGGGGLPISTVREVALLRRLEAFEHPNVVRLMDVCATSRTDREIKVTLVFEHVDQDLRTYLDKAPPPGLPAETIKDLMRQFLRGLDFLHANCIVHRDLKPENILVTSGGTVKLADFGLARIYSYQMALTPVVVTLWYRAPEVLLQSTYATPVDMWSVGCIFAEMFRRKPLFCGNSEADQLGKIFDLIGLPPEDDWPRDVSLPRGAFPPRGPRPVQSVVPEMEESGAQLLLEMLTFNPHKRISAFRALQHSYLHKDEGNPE
UniProt P50613: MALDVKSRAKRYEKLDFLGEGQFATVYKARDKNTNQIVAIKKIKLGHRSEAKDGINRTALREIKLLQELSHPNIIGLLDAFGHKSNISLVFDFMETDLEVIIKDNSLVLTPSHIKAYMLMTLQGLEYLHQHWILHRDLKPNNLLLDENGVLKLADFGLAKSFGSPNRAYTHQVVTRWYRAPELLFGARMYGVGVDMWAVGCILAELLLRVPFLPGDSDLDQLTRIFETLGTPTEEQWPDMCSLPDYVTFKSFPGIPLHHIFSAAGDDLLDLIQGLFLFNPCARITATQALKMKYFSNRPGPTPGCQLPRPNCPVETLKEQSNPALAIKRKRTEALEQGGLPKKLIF
UniProt P50750, whole entry: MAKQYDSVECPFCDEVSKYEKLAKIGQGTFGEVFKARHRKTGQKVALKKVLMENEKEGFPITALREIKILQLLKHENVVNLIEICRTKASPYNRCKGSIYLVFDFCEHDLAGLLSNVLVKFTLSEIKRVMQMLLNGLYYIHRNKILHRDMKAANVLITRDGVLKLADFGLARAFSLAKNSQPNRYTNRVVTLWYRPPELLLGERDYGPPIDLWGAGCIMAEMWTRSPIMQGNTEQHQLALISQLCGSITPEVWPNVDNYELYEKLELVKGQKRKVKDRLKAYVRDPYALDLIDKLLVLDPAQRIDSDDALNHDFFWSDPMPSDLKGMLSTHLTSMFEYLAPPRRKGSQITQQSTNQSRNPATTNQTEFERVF

Assays:
Details in all cases: K562; 2-18 h
[1] = biological target: YES1 (UniProt P07947); test: number of time points (of 5) at which kinase-Nluc abundance scored as decreased, DMSO-normalised (count); higher = more persistent destabilization
[2] = biological target: ZAK (UniProt Q9NYL2); test: as above
[3] = biological target: ZAP70 (UniProt P43403); test: as above
[4] = biological target: CDK4 (UniProt P11802); test: number of time points (of 4; 2 h point missing) at which kinase-Nluc abundance scored as decreased, DMSO-normalised (count); higher = more persistent destabilization
[5] = biological target: CDK7 (UniProt P50613); test: as above
[6] = biological target: CDK9 (UniProt P50750); test: as above

CN1CCC(Nc2ncc3ncnc(Nc4ccc(F)c(Cl)c4)c3n2)CC1 [Falnidamol] (10 µM)
number of time points [1]: 0
number of time points [2]: 0
number of time points [3]: 0
number of time points [4]: 0
number of time points [5]: 0
number of time points [6]: 0

CN(C)C(=O)/C(C#N)=C/c1ccc(-c2nc3cnc4[nH]ccc4c3n2C2CCCCC2)o1 (10 µM)
number of time points [1]: 0
number of time points [2]: 0
number of time points [3]: 0
number of time points [4]: 0
number of time points [5]: 0
number of time points [6]: 0

CCN(CCCOc1ccc2c(Nc3cc(CC(=O)Nc4cccc(F)c4)[nH]n3)ncnc2c1)CCOP(=O)(O)O [Barasertib] (10 µM)
number of time points [1]: 0
number of time points [2]: 0
number of time points [3]: 0
number of time points [4]: 0
number of time points [5]: 1
number of time points [6]: 0

Cc1ncc(-c2ccnc(Nc3ccc(S(C)(=O)=O)cc3)n2)n1C(C)C (2.5 µM)
number of time points [1]: 0
number of time points [2]: 0
number of time points [3]: 0
number of time points [4]: 0
number of time points [5]: 3
number of time points [6]: 0

Cc1c[nH]c(/C=C2\C(=O)Nc3ccccc32)c1CCC(=O)O (10 µM)
number of time points [1]: 0
number of time points [2]: 0
number of time points [3]: 0
number of time points [4]: 0
number of time points [5]: 0
number of time points [6]: 0

O=C1c2ccccc2-c2n[nH]c3cccc1c23 (10 µM)
number of time points [1]: 0
number of time points [2]: 0
number of time points [3]: 0
number of time points [4]: 0
number of time points [5]: 0
number of time points [6]: 0

O=C1NCCc2[nH]c(-c3ccnc(-c4cnc5ccccc5c4)c3)cc21 (10 µM)
number of time points [1]: 0
number of time points [2]: 0
number of time points [3]: 0
number of time points [4]: 0
number of time points [5]: 0
number of time points [6]: 0

Oc1cc(O)cc(/C=C/c2ccc(O)c(O)c2)c1 [Piceatannol] (10 µM)
number of time points [1]: 2
number of time points [2]: 3
number of time points [3]: 2
number of time points [4]: 0
number of time points [5]: 3
number of time points [6]: 0

CC#CC(=O)N[C@H]1CCCN(c2c(F)cc(C(N)=O)c3[nH]c(C)c(C)c23)C1 [Branebrutinib] (10 µM)
number of time points [1]: 0
number of time points [2]: 0
number of time points [3]: 0
number of time points [4]: 0
number of time points [5]: 0
number of time points [6]: 0

CC(=O)N1CCN(c2ccc(OCC3COC(Cn4ccnc4)(c4ccc(Cl)cc4Cl)O3)cc2)CC1 (stereo not given) [Ketoconazole] (2.5 µM)
number of time points [1]: 0
number of time points [2]: 0
number of time points [3]: 0
number of time points [4]: 0
number of time points [5]: 0
number of time points [6]: 0

Cc1ccc(S(=O)(=O)Nc2nc3ccccc3nc2Nc2ccc3nsnc3c2)cc1 [Pilaralisib analogue] (10 µM)
number of time points [1]: 4
number of time points [2]: 0
number of time points [3]: 0
number of time points [4]: 0
number of time points [5]: 0
number of time points [6]: 0

CC(C)(C)S(=O)(=O)c1cc2c(Nc3ccc4scnc4c3)ncnc2cc1OCCO (2.5 µM)
number of time points [1]: 0
number of time points [2]: 0
number of time points [3]: 0
number of time points [4]: 0
number of time points [5]: 0
number of time points [6]: 0

CCn1cc(-c2ccnc3[nH]c(-c4cccc(CN(C)C)c4)cc23)c(-c2ccc(NC(=O)N(C)C)cc2)n1 (2.5 µM)
number of time points [1]: 0
number of time points [2]: 0
number of time points [3]: 0
number of time points [4]: 0
number of time points [5]: 0
number of time points [6]: 0

C=CC(=O)Nc1ccc2ncnc(Nc3cccc(Br)c3)c2c1 (10 µM)
number of time points [1]: 0
number of time points [2]: 0
number of time points [3]: 0
number of time points [4]: 0
number of time points [5]: 0
number of time points [6]: 0

O=c1oc2c(O)c(O)cc3c(=O)oc4c(O)c(O)cc1c4c23 [Ellagic acid] (10 µM)
number of time points [1]: 0
number of time points [2]: 0
number of time points [3]: 0
number of time points [4]: 0
number of time points [5]: 0
number of time points [6]: 0

COc1ccc(COc2ccc(Cc3cnc(N)nc3N)cc2OC)cc1 (10 µM)
number of time points [1]: 0
number of time points [2]: 0
number of time points [3]: 0
number of time points [4]: 0
number of time points [5]: 0
number of time points [6]: 0

COc1cc2c(Nc3ccc(Br)cc3F)ncnc2cc1OCCn1ccnn1 (10 µM)
number of time points [1]: 0
number of time points [2]: 0
number of time points [3]: 0
number of time points [4]: 0
number of time points [5]: 0
number of time points [6]: 0

Nc1ncnc2c1c(-c1ccc(Oc3ccccc3)cc1)cn2C1CCCC1 (2.5 µM)
number of time points [1]: 0
number of time points [2]: 0
number of time points [3]: 0
number of time points [4]: 0
number of time points [5]: 0
number of time points [6]: 0

COc1ccc(F)c(F)c1C(=O)c1cnc(NC2CCN(S(C)(=O)=O)CC2)nc1N (2.5 µM)
number of time points [1]: 2
number of time points [2]: 0
number of time points [3]: 0
number of time points [4]: 0
number of time points [5]: 3
number of time points [6]: 1

CCN(CCO)CCCOc1ccc2c(Nc3cc(CC(=O)Nc4cccc(F)c4)[nH]n3)ncnc2c1 [Barasertib-HQPA] (10 µM)
number of time points [1]: 0
number of time points [2]: 0
number of time points [3]: 0
number of time points [4]: 0
number of time points [5]: 0
number of time points [6]: 0

Brc1c(Br)c(Br)c2n[nH]nc2c1Br (10 µM)
number of time points [1]: 0
number of time points [2]: 0
number of time points [3]: 0
number of time points [4]: 0
number of time points [5]: 0
number of time points [6]: 0

CC1(C)CC=C(c2nc(C3CC(C)(C)OC(C)(C)C3)ccc2NC(=O)c2nc(C#N)c[nH]2)CC1 [Edicotinib] (2.5 µM)
number of time points [1]: 0
number of time points [2]: 0
number of time points [3]: 0
number of time points [4]: 0
number of time points [5]: 0
number of time points [6]: 0

COCc1c(-c2ccc(NC(=O)Nc3cc(C(F)(F)F)ccc3F)c(F)c2)c2c(N)ncnn2c1CN1CCOCC1 (2.5 µM)
number of time points [1]: 0
number of time points [2]: 0
number of time points [3]: 0
number of time points [4]: 0
number of time points [5]: 3
number of time points [6]: 3

CC(C)=CC/C=C(\C)[C@H]1CC[C@]2(C)[C@@H]1[C@H](O)C[C@@H]1[C@@]3(C)CC[C@H](O[C@@H]4O[C@H](CO)[C@@H](O)[C@H](O)[C@H]4O[C@@H]4O[C@H](CO)[C@@H](O)[C@H](O)[C@H]4O)C(C)(C)[C@@H]3CC[C@]12C [Ginsenoside Rg5] (10 µM)
number of time points [1]: 0
number of time points [2]: 0
number of time points [3]: 0
number of time points [4]: 0
number of time points [5]: 0
number of time points [6]: 0

CN1CCN(c2ccc(Nc3cc(-c4cccc(-n5ccc6cc(C7CC7)cc(F)c6c5=O)c4CO)cn(C)c3=O)nc2)CC1 (2.5 µM)
number of time points [1]: 0
number of time points [2]: 0
number of time points [3]: 0
number of time points [4]: 0
number of time points [5]: 0
number of time points [6]: 0
